# Some of the results follow.
# The chains behind the UniProt entries cited, without tags or fusion partners. Where a name states a change or a piece, a line headed by the entry shows the natural chain unless it says otherwise.
# UniProt Q5TAX3: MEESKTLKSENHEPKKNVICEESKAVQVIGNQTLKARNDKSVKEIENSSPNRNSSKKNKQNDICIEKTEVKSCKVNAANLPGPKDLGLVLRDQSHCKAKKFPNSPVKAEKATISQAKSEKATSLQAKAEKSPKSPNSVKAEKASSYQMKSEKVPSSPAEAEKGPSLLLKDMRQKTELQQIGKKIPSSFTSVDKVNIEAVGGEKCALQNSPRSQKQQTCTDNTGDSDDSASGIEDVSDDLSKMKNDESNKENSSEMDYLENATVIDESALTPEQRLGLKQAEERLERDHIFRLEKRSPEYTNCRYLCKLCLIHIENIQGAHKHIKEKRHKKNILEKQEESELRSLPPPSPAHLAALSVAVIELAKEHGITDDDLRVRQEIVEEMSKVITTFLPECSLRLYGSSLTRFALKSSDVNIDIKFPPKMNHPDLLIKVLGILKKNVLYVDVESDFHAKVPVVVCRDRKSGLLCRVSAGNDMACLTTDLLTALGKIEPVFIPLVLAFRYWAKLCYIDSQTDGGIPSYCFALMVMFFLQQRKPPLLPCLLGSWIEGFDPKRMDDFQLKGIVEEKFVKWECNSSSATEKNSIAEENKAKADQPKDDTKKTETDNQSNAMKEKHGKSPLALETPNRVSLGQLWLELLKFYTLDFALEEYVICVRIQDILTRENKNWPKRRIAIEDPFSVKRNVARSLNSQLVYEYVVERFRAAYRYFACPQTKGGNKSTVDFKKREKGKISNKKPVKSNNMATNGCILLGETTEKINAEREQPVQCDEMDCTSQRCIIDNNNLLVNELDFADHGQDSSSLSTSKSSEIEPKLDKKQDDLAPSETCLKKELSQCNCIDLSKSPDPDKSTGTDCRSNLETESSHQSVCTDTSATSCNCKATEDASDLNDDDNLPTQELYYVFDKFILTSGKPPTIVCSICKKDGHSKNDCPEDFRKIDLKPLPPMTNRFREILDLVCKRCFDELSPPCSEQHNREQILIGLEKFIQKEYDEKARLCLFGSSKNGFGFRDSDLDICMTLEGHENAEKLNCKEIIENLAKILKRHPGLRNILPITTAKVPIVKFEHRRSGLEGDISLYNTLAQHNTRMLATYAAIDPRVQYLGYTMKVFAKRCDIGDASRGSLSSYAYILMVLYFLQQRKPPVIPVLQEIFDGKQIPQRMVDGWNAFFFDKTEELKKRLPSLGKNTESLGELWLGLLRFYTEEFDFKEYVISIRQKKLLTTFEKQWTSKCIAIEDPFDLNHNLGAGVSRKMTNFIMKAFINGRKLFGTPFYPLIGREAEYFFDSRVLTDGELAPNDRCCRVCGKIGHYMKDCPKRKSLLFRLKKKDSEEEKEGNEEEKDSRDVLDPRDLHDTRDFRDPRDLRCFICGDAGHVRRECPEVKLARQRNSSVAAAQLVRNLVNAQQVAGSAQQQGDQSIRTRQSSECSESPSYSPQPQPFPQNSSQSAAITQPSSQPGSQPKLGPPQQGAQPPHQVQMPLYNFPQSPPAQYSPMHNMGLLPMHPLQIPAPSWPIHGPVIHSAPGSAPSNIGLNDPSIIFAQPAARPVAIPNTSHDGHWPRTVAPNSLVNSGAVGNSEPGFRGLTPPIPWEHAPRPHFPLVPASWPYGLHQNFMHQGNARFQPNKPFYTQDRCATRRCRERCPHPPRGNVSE
# UniProt Q6PGP7, whole entry, looked up: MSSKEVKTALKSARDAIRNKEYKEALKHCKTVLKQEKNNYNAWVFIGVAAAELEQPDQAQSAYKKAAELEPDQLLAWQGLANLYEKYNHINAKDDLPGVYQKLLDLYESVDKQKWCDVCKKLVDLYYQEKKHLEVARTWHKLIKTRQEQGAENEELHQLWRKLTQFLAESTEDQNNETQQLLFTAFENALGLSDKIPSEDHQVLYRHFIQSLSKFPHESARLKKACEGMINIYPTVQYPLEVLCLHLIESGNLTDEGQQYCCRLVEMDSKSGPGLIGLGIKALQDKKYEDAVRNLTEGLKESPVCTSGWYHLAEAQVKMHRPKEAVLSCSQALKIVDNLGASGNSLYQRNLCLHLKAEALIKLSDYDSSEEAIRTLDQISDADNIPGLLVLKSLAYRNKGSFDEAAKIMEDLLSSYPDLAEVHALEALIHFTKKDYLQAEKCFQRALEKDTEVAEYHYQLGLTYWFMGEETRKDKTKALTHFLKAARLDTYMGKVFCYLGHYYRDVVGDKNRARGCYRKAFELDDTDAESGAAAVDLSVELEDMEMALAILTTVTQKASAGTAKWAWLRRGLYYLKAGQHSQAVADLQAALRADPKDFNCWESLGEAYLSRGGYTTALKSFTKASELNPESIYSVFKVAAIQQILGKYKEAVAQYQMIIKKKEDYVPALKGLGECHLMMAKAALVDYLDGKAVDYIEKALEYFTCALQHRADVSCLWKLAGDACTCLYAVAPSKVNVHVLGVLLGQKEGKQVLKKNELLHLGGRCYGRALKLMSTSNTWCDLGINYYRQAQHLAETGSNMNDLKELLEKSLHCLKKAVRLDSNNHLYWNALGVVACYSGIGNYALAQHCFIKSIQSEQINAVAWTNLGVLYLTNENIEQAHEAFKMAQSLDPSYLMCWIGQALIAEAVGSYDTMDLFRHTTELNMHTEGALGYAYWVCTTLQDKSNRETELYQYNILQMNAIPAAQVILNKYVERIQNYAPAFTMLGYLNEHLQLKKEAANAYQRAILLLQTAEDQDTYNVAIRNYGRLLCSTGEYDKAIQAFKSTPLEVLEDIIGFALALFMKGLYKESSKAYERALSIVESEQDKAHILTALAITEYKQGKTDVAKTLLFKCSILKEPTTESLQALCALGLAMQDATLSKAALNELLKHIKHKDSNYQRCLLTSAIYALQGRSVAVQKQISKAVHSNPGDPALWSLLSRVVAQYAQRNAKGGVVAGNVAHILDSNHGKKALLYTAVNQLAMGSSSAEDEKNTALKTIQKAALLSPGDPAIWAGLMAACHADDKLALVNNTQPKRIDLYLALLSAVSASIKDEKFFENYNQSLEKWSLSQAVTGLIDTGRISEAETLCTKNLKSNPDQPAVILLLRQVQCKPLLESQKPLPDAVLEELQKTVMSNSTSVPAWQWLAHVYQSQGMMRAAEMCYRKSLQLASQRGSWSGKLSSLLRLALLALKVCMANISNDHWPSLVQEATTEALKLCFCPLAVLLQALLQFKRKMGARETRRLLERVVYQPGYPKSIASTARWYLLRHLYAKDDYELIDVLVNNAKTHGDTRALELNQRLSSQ
# UniProt P33981: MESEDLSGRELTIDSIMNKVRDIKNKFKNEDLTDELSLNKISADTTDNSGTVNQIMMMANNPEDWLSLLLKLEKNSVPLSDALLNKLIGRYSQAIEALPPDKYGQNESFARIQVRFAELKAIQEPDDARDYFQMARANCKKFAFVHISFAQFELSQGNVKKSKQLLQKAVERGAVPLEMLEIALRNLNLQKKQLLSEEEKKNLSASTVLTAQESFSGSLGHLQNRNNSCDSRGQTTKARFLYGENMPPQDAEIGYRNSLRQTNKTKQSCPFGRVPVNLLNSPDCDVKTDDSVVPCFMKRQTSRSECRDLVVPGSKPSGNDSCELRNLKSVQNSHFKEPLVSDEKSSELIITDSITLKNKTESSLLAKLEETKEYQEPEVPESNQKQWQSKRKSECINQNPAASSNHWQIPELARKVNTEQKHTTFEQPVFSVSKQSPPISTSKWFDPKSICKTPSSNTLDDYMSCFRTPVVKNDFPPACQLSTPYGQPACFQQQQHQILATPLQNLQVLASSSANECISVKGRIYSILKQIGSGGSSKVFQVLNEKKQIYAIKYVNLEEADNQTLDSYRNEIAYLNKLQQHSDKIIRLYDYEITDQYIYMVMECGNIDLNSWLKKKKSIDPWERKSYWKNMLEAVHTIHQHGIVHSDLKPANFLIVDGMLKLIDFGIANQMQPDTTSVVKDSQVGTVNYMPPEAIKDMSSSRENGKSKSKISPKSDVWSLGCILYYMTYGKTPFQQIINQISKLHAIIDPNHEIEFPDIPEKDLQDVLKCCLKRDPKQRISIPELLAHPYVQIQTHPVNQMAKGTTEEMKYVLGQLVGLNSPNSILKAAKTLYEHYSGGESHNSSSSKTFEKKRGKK
# UniProt Q9BSJ2, whole entry, looked up: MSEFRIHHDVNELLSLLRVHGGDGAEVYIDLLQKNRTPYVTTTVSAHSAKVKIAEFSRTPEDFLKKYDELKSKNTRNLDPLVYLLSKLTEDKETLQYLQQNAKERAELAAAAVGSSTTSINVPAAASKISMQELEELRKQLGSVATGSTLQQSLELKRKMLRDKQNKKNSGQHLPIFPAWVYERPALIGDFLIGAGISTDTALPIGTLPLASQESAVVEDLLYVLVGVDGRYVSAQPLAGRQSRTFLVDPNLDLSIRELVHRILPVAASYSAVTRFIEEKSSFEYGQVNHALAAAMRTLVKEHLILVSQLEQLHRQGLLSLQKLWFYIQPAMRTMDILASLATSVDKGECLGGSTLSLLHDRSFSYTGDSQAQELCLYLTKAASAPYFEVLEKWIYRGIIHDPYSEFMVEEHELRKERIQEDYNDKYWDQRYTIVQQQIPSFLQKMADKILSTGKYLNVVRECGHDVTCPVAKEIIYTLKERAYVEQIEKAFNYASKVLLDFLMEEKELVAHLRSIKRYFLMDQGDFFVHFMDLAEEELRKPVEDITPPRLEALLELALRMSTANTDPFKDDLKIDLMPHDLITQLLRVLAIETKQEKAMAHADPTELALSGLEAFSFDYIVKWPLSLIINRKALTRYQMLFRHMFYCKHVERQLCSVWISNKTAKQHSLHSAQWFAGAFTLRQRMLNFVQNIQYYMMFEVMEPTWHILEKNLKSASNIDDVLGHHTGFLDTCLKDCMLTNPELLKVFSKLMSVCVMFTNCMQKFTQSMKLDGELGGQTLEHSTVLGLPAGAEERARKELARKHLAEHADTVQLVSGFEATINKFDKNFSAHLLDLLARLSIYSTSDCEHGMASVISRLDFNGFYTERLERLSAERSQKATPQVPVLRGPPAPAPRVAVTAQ
# UniProt O95801: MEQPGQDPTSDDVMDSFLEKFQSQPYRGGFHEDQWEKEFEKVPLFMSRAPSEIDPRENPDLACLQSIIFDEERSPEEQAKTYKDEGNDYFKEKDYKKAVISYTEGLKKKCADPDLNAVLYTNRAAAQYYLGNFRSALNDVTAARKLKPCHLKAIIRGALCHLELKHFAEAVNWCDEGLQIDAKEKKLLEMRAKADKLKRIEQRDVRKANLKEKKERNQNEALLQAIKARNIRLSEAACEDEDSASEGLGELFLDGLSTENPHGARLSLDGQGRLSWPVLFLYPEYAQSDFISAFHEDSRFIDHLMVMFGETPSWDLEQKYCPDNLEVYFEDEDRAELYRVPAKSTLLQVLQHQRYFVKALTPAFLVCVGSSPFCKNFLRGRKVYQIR
# UniProt Q9UNY4: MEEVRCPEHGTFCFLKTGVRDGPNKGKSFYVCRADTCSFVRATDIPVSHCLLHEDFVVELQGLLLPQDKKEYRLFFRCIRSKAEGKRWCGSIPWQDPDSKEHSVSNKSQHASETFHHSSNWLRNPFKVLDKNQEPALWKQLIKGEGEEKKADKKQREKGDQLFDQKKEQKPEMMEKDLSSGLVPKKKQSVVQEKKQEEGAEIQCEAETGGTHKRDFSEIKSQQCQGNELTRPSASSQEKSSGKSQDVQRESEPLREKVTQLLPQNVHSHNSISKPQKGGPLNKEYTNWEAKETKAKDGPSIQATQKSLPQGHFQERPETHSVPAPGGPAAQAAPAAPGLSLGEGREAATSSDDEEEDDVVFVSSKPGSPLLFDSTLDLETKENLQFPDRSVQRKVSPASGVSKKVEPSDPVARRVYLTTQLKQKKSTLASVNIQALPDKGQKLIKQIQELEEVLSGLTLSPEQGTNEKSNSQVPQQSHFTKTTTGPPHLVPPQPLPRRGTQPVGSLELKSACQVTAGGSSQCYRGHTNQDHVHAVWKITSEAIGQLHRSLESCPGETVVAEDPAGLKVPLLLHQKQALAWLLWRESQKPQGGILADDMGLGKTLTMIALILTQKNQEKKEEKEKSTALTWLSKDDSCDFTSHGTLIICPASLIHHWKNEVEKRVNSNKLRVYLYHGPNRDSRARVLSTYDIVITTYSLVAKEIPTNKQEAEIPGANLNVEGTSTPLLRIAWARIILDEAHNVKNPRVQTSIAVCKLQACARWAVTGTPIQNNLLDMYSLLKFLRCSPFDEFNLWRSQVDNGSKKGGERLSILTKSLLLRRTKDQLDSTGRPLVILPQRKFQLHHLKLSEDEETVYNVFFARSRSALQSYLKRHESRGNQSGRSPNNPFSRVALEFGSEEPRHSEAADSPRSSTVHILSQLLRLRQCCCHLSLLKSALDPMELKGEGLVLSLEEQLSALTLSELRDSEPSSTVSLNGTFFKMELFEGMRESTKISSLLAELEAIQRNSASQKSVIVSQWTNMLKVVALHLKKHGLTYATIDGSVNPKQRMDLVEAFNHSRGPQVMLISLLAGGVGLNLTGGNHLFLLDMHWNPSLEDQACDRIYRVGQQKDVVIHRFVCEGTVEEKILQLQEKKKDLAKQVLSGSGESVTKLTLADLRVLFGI
# Compound: Cc1cc(ccc1-c1ccccc1)C(=O)N1CCCN(CC1)C(=O)CCl [compound 10]
# Experiment: probe-labelled cysteine peptide fold change vs DMSO (competition) (log2 fold change); higher = less target engagement (more negative = stronger competition)
# Conditions: THP-1, incubation time: 4 h
# 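Note: competitive profiling in live THP-1 cells: cysteine peptides tagged with an iodoacetamide desthiobiotin (IA-DTB) probe, intensity after compound treatment relative to DMSO-treated cells.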
Target,probe-labelled cysteine peptide fold change (10 µM),probe-labelled cysteine peptide fold change (50 µM)
TRMT2A_Q8IZ69_538_RLLYVSCNPR (UniProt Q8IZ69),0.11,0.331
TRMT44_Q8IYL2_482_EVGFTCGFHVDEDCLR (UniProt Q8IYL2),0.161,0.256
TUBB6_Q9BUF5_127_KECEHCDCLQGFQLTHSLGGGTGSGMGTLLISK (UniProt Q9BUF5),-0.0582,-0.441
TSTA3_Q13630_163_AYFQQYGCTFTAVIPTNVFGPHDNFNIEDGHVLPGLIHK (UniProt Q13630),0.308,0.41
TTC27_Q6P3X3_503_ETPSLYCLLGDVLGDHSCYDK (UniProt Q6P3X3),-0.0706,-0.311
TTLL12_Q14166_361_KLSQERPGVLLNQFPCENLLTVK (UniProt Q14166),-0.0848,-0.518
TTLL12_Q14166_126_ESGLQAAHPNSIFLIDHAWTCR (UniProt Q14166),0.0995,0.0514
TUT7_Q5VYS8_775_RGEHVVCGSTR (UniProt Q5VYS8),-0.538,-0.118
TUT4_Q5TAX3_394_VITTFLPECSLR (UniProt Q5TAX3),0.0149,0.0648
TTC37_Q6PGP7_329_EAVLSCSQALK (UniProt Q6PGP7),-0.137,-0.117
TTC7A_Q9ULT0_623_GPEEALVTCR (UniProt Q9ULT0),0.0236,0.115
TUT7_Q5VYS8_417_VSAGNENACLTTK (UniProt Q5VYS8),0.162,0.00824
TUT4_Q5TAX3_994_LCLFGSSK (UniProt Q5TAX3),-0.0277,-0.158
TTLL12_Q14166_612_VMQPQILEVNFNPDCER (UniProt Q14166),0.107,0.385
TSN_Q15631_225_ETAAACVEK (UniProt Q15631),-0.291,-0.282
TSPYL5_Q86VY4_85_LPLDCGLALR (UniProt Q86VY4),-0.317,-0.414
TTLL12_Q14166_563+572_AFTELFQVACAKPPPLGLCDYPSSR (UniProt Q14166),0.109,0.217
TSC2_P49815_395_TIVHDLLTTVEELCDQNEFHGSQER (UniProt P49815),0.34,-0.0715
TTLL12_Q14166_361_LSQERPGVLLNQFPCENLLTVK (UniProt Q14166),0.0492,-0.0145
TTC27_Q6P3X3_514_KETPSLYCLLGDVLGDHSCYDK (UniProt Q6P3X3),-0.155,-0.359
TTC1_Q99614_28_VTDTQEAECAGPPVPDPKNQHSQSK (UniProt Q99614),-0.121,-0.23

Target,probe-labelled cysteine peptide fold change (10 µM),probe-labelled cysteine peptide fold change (50 µM)
TRPM2_O94759_72_ECVYFVESSK (UniProt O94759),-0.0415,-0.249
TST_Q16762_64_HVPGASFFDIEECR (UniProt Q16762),0.141,0.000964
TTC37_Q6PGP7_1162_CLLTSAIYALQGR (UniProt Q6PGP7),-0.0497,-0.11
TSR1_Q2NL82_126_ISLPEAMQLLQDRDTGTVHLNELGNTQNFMLLCPR (UniProt Q2NL82),-0.176,-0.563
TUT4_Q5TAX3_833_ELSQCNCIDLSK (UniProt Q5TAX3),-0.143,-0.371
TSC1_Q92574_259_RLETHDVVIECAK (UniProt Q92574),0.224,0.167
TSR3_Q9UJK0_208_YAACGSPEEVLQAEQEFLANAK (UniProt Q9UJK0),0.0501,0.24
TTC28_Q96AY4_274_TLGDQTGECR (UniProt Q96AY4),0.126,-0.18
TTK_P33981_322_DLVVPGSKPSGNDSCELR (UniProt P33981),-0.133,-0.627
TSR1_Q2NL82_329_DPDMAMEICATDAVDDMEEGLK (UniProt Q2NL82),-0.474,-0.249
TSC2_P49815_414_CADQRPESSLLNLISYR (UniProt P49815),-0.151,-0.184
TUBB1_Q9H4B7_12_MREIVHIQIGQCGNQIGAK (UniProt Q9H4B7),0.177,0.649
TUBGCP2_Q9BSJ2_648_HMFYCK (UniProt Q9BSJ2),-0.103,0.251
TSC2_P49815_519_KLATQLLVDLAEGCHTHHFNSLLDIIEK (UniProt P49815),-0.0466,-0.372
TSSC4_Q9Y5U2_99_SRDIFDCLEGAAR (UniProt Q9Y5U2),-0.38,-0.388
TTC7A_Q9ULT0_199_LTEREEEVITCFER (UniProt Q9ULT0),0.0306,-0.0334
TUBGCP3_Q96CW5_325_SFGLVGQSFCAALHQELR (UniProt Q96CW5),-0.0124,0.0533
TUBGCP2_Q9BSJ2_848_LSIYSTSDCEHGMASVISR (UniProt Q9BSJ2),-0.0533,-0.128
TXNDC5_Q8NBS9_254_VDCTQHYELCSGNQVR (UniProt Q8NBS9),-0.0339,0.0451
TRRAP_Q9Y4A5_1376_IAALNALAACNYLPQSR (UniProt Q9Y4A5),-0.127,-0.0834
TTC4_O95801_160_GALCHLELK (UniProt O95801),0.25,-0.00257

Target,probe-labelled cysteine peptide fold change (10 µM),probe-labelled cysteine peptide fold change (50 µM)
TRPM7_Q96QT4_1411_FFVSTPSQPSCK (UniProt Q96QT4),-0.337,-0.544
TXNIP_Q9H3M7_170_VSCMFIPDGR (UniProt Q9H3M7),0.0303,-1.26
TSC1_Q92574_822_VCHTELLLSQVSQK (UniProt Q92574),-0.126,-0.156
TTC37_Q6PGP7_352_NLCLHLK (UniProt Q6PGP7),0.0369,-0.111
TTF2_Q9UNY4_785_CSPFDEFNLWR (UniProt Q9UNY4),0.12,0.182
TTF2_Q9UNY4_50_ATDIPVSHCLLHEDFVVELQGLLLPQDKK (UniProt Q9UNY4),0.136,-0.0113
TWNK_Q96RR1_330_CFLVRPGDQQPRPLEALNGGFNLSR (UniProt Q96RR1),-0.0451,-0.244
TXNIP_Q9H3M7_170_KVSCMFIPDGR (UniProt Q9H3M7),0.205,-1.47
TRRAP_Q9Y4A5_949_AIETALDCLK (UniProt Q9Y4A5),0.183,0.0005
TSR1_Q2NL82_618_EELIFHCGFR (UniProt Q2NL82),0.229,0.23
TTC37_Q6PGP7_705_ALEYFTCALQHR (UniProt Q6PGP7),-0.0778,-0.0891
TUBGCP2_Q9BSJ2_656_QLCSVWISNK (UniProt Q9BSJ2),0.232,0.238
TRNT1_Q96Q11_373_YQGEHCLLK (UniProt Q96Q11),-0.39,-1.54
TWISTNB_Q3B726_47_YSCLVAGPHQR (UniProt Q3B726),0.137,0.174
TXNDC5_Q8NBS9_350+353_FYAPWCGHCK (UniProt Q8NBS9),-0.375,-1.05
TWSG1_Q9GZX9_185_ISCESMGASK (UniProt Q9GZX9),-0.121,-0.0863
TTI2_Q6NXR4_461_SALLQEATDCLILLDR (UniProt Q6NXR4),0.0942,-0.0555
TRPM7_Q96QT4_53_QHACFTASLAMK (UniProt Q96QT4),-0.0253,-0.686
TTC37_Q6PGP7_1280_AALLSPGDPAIWAGLMAACHADDK (UniProt Q6PGP7),-0.081,0.143
TUBA4A_P68366_4_MRECISVHVGQAGVQMGNACWELYCLEHGIQPDGQMPSDK (UniProt P68366),-0.0787,-0.408
TUBGCP3_Q96CW5_497_SINFLHQVCHDQTPTTK (UniProt Q96CW5),-0.0597,0.247

Target,probe-labelled cysteine peptide fold change (10 µM),probe-labelled cysteine peptide fold change (50 µM)
TSTA3_Q13630_116_VVSCLSTCIFPDK (UniProt Q13630),-0.0711,-1.67
TTC39C_Q8N584_517_AVKDELCR (UniProt Q8N584),-0.00819,-0.291
TTC4_O95801_110_CADPDLNAVLYTNR (UniProt O95801),-0.0529,-0.155
TTC7A_Q9ULT0_121_LSPQYMCEAMLILGK (UniProt Q9ULT0),0.271,0.227
TWF2_Q6IBS0_141_HLSSCAAPAPLTSAER (UniProt Q6IBS0),0.0626,-0.0878
TUBB6_Q9BUF5_124+127_ECEHCDCLQGFQLTHSLGGGTGSGMGTLLISK (UniProt Q9BUF5),0.114,-0.886
TSC2_P49815_1755_ICEEAAYSNPSLPLVHPPSHSK (UniProt P49815),-0.402,-0.562
TUT4_Q5TAX3_204_CALQNSPR (UniProt Q5TAX3),-0.476,-0.222
TRNAU1AP_Q9NX07_157_ALTECQGAVGLGSKPVR (UniProt Q9NX07),-0.212,-0.171
TRMT2A_Q8IZ69_538_LLYVSCNPR (UniProt Q8IZ69),-0.227,-0.248
TTC4_O95801_174_HFAEAVNWCDEGLQIDAK (UniProt O95801),0.192,-0.125
TUBGCP6_Q96RT7_302_VGCPPGHREEPYLTEAGR (UniProt Q96RT7),-0.208,-0.275
TTK_P33981_295_TDDSVVPCFMK (UniProt P33981),-0.0408,-0.435
TXNIP_Q9H3M7_63_VLWMQGSQQCK (UniProt Q9H3M7),-0.134,-0.964
TUT4_Q5TAX3_966_CFDELSPPCSEQHNR (UniProt Q5TAX3),-0.0735,-0.525
TUBGCP4_Q9UGJ1_151_IHGCQILETVYK (UniProt Q9UGJ1),-0.134,-0.018
TRRAP_Q9Y4A5_3535_IYPYLVMNDACLTESR (UniProt Q9Y4A5),-0.136,-0.0829
TRRAP_Q9Y4A5_3085_CYLQLAGVMGK (UniProt Q9Y4A5),-0.309,0.325
TSEN54_Q7Z6J9_277_EGVGCSWESGR (UniProt Q7Z6J9),-0.288,-0.558
TUBB6_Q9BUF5_12_EIVHIQAGQCGNQIGTK (UniProt Q9BUF5),-0.186,-0.288
TTC38_Q5R3I4_429_DVFNQLLIHAALNCTSSVHK (UniProt Q5R3I4),-0.0993,-0.394

# Source: the supplement of paper PMC12067093, “Discovery and optimisation of a covalent ligand for TRIM25 and its application to targeted protein ubiquitination” (Chemical Science, 2025)
